Laboratory results: PubChem BioAssay AID652243 (Drosophila RNAi Screening Center, 2013)
Aim: 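Fly genes required for human androgen receptor driven transcription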 (primary screen). Cells: Drosophila S2R+ cells. Reagents: long dsRNA against Drosophila genes. Duration: 72 h (48 h, then 24 h hormone). Challenge: synthetic androgen R1881 at 10 nM for 24 h. Read-out: 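Firefly light from an androgen-responsive reporter and Renilla control light per well, raw and unnormalised, for each of two replicates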. Reading the numbers: firefly reporter light: higher = more light from androgen-responsive reporter; Renilla control light: higher = more constitutive control signal (cell number, transfection). Active means: 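Hit when the log firefly-to-Renilla ratio dropped or increased by a fixed fold versus the mean of GFP or LacZ controls across duplicate plates; lowering cut given as 1.5 and as 3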. Meaning of the calls: active = hit: reporter lowered or raised; inactive = no hit.
The deposit covers about 24,000 reagents; below is an unselected part of those with a known target gene and a result. Over the whole deposit, 246 (1%) are marked active. 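Plates not normalised; calls are printed but the firefly/Renilla ratio behind them is not deposited; fold cut for lowering reported inconsistently.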 Raw values vary from plate to plate and are shown uncorrected. The record does not give: the amount of reagent.

Klf15 [DRSC17742] — firefly reporter light, replicate 1: 1.96e5; firefly reporter light, replicate 2: 2.28e5; Renilla control light, replicate 1: 2.56e6; Renilla control light, replicate 2: 2.51e6; activity call: inactive
CG43295 [DRSC09416] — firefly reporter light, replicate 1: 8.03e5; firefly reporter light, replicate 2: 8.47e5; Renilla control light, replicate 1: 9.96e5; Renilla control light, replicate 2: 1.08e6; activity call: inactive
Tmf [DRSC18368] — firefly reporter light, replicate 1: 3.59e5; firefly reporter light, replicate 2: 3.92e5; Renilla control light, replicate 1: 1.78e6; Renilla control light, replicate 2: 1.39e6; activity call: inactive
Tmf [DRSC30004] — firefly reporter light, replicate 1: 3.57e5; firefly reporter light, replicate 2: 3.56e5; Renilla control light, replicate 1: 1.48e6; Renilla control light, replicate 2: 1.38e6; activity call: inactive
nrm [DRSC11599] — firefly reporter light, replicate 1: 1.40e5; firefly reporter light, replicate 2: 1.85e5; Renilla control light, replicate 1: 4.34e5; Renilla control light, replicate 2: 4.24e5; activity call: inactive
nrm [DRSC11897] — firefly reporter light, replicate 1: 1.46e5; firefly reporter light, replicate 2: 1.48e5; Renilla control light, replicate 1: 1.65e6; Renilla control light, replicate 2: 1.80e6; activity call: inactive
nrm [DRSC38832] — firefly reporter light, replicate 1: 1.03e6; firefly reporter light, replicate 2: 8.53e5; Renilla control light, replicate 1: 2.56e6; Renilla control light, replicate 2: 1.67e6; activity call: inactive
CG10505 [DRSC04075] — firefly reporter light, replicate 1: 2.48e5; firefly reporter light, replicate 2: 3.51e5; Renilla control light, replicate 1: 2.23e6; Renilla control light, replicate 2: 2.27e6; activity call: inactive
CG17648 [DRSC00508] — firefly reporter light, replicate 1: 1.34e5; firefly reporter light, replicate 2: 84362; Renilla control light, replicate 1: 9.00e5; Renilla control light, replicate 2: 1.01e6; activity call: inactive
CG10918 [DRSC20472] — firefly reporter light, replicate 1: 1.10e5; firefly reporter light, replicate 2: 1.07e5; Renilla control light, replicate 1: 4.45e5; Renilla control light, replicate 2: 4.37e5; activity call: inactive
CG10918 [DRSC24162] — firefly reporter light, replicate 1: 5.24e5; firefly reporter light, replicate 2: 5.19e5; Renilla control light, replicate 1: 6.04e5; Renilla control light, replicate 2: 6.99e5; activity call: inactive
ppk6 [DRSC06062] — firefly reporter light, replicate 1: 45186; firefly reporter light, replicate 2: 50169; Renilla control light, replicate 1: 4.98e5; Renilla control light, replicate 2: 5.55e5; activity call: inactive
ppk6 [DRSC29267] — firefly reporter light, replicate 1: 4.98e5; firefly reporter light, replicate 2: 3.67e5; Renilla control light, replicate 1: 2.11e6; Renilla control light, replicate 2: 1.83e6; activity call: inactive
ppk6 [DRSC39033] — firefly reporter light, replicate 1: 1.00e6; firefly reporter light, replicate 2: 1.12e6; Renilla control light, replicate 1: 2.31e6; Renilla control light, replicate 2: 2.16e6; activity call: inactive
Dlip1 [DRSC18460] — firefly reporter light, replicate 1: 2.50e5; firefly reporter light, replicate 2: 3.68e5; Renilla control light, replicate 1: 1.82e6; Renilla control light, replicate 2: 2.51e6; activity call: inactive
CG3270 [DRSC04988] — firefly reporter light, replicate 1: 6.70e5; firefly reporter light, replicate 2: 7.02e5; Renilla control light, replicate 1: 1.25e6; Renilla control light, replicate 2: 1.36e6; activity call: inactive
CG14397 [DRSC02381] — firefly reporter light, replicate 1: 1.55e5; firefly reporter light, replicate 2: 2.15e5; Renilla control light, replicate 1: 1.65e6; Renilla control light, replicate 2: 1.79e6; activity call: inactive
CG14818 [DRSC18548] — firefly reporter light, replicate 1: 2.09e5; firefly reporter light, replicate 2: 2.31e5; Renilla control light, replicate 1: 2.31e6; Renilla control light, replicate 2: 3.09e6; activity call: inactive
CG14818 [DRSC29496] — firefly reporter light, replicate 1: 7.57e5; firefly reporter light, replicate 2: 6.37e5; Renilla control light, replicate 1: 1.71e6; Renilla control light, replicate 2: 1.71e6; activity call: inactive
CG10725 [DRSC09788] — firefly reporter light, replicate 1: 7.52e5; firefly reporter light, replicate 2: 6.04e5; Renilla control light, replicate 1: 2.12e6; Renilla control light, replicate 2: 1.76e6; activity call: inactive
PolQ [DRSC17006] — firefly reporter light, replicate 1: 47263; firefly reporter light, replicate 2: 44612; Renilla control light, replicate 1: 7.53e5; Renilla control light, replicate 2: 8.85e5; activity call: inactive
Mtl [DRSC16751] — firefly reporter light, replicate 1: 2.61e5; firefly reporter light, replicate 2: 2.16e5; Renilla control light, replicate 1: 2.60e6; Renilla control light, replicate 2: 3.26e6; activity call: inactive
CG6686 [DRSC02979] — firefly reporter light, replicate 1: 7.46e5; firefly reporter light, replicate 2: 8.78e5; Renilla control light, replicate 1: 2.16e6; Renilla control light, replicate 2: 2.49e6; activity call: inactive
CG6686 [DRSC27705] — firefly reporter light, replicate 1: 2.55e5; firefly reporter light, replicate 2: 2.20e5; Renilla control light, replicate 1: 4.07e5; Renilla control light, replicate 2: 6.76e5; activity call: inactive
CG12546 [DRSC11676] — firefly reporter light, replicate 1: 54565; firefly reporter light, replicate 2: 46004; Renilla control light, replicate 1: 9.11e5; Renilla control light, replicate 2: 1.13e6; activity call: inactive
CG9393 [DRSC16486] — firefly reporter light, replicate 1: 64174; firefly reporter light, replicate 2: 73158; Renilla control light, replicate 1: 2.67e5; Renilla control light, replicate 2: 3.87e5; activity call: inactive
Gp93 [DRSC15827] — firefly reporter light, replicate 1: 99677; firefly reporter light, replicate 2: 67632; Renilla control light, replicate 1: 7.32e5; Renilla control light, replicate 2: 6.03e5; activity call: inactive
Gp93 [DRSC27798] — firefly reporter light, replicate 1: 3.64e5; firefly reporter light, replicate 2: 3.23e5; Renilla control light, replicate 1: 8.38e5; Renilla control light, replicate 2: 9.86e5; activity call: inactive
